Test results as given in patent US20190248901A1 (NOVELOGICS BIOTECHNOLOGY, published 2019).
These are yes or no findings as the source states them, for the method shown. Some entries that bind do so weakly or less than the wild type. For part of these data: Where a sequence is shown, tags or fusion partners need not be part of it.

Columns and labels:
[1] = biological target: T1, soluble MICB (sMICB) shed from prostate cancer DU-145 cells (human) (UniProt Q29980); experiment: subtractive immunoprecipitation from DU-145 conditioned medium with antibody on Protein G PLUS-agarose beads; remaining sMICB measured by MICB ELISA
T1 sequence (looked up): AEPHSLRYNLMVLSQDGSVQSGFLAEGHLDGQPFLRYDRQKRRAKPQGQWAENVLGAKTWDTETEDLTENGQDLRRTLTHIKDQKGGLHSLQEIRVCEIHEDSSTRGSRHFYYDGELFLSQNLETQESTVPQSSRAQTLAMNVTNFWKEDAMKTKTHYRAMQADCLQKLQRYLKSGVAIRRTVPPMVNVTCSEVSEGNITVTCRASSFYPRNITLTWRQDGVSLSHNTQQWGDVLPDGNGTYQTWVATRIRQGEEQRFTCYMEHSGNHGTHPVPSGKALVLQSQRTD

[2] = biological target: T2, synthetic MICA*001 alpha-3 peptides with core sequence QQWGDVLP (human); experiment: Pepscan peptide array ELISA
T2 sequence (peptide): QQWGDVLP

[3] = biological target: T3, recombinant extracellular alpha-3 domain of MICA (allele 001), His-tagged, Baculovirus/Sf9 expressed (human) (UniProt Q29983); experiment: indirect ELISA
T3 sequence: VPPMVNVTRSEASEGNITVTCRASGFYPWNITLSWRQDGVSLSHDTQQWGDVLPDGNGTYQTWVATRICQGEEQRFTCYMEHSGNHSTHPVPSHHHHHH

Measured: binding

B1: monoclonal antibody 5C9 (antibody, V domains shown)
VH: QVQLQQSGAELVRPGTSVKVSCKASGYAFTNYLIEWVKQRPGQGLEWIGLIYPGSGGTNYNEKFKGKATLTADKSSSTAYMQLSSLTSDDSAVYFCARIYYGNRDYGMDYWGQGTSVTVSS
VL: MTQTPLSLPVSLGDQASISCRSSQSIVHSNGNTYLEWYLQKPGQSPKLLIYKVSNRFSGVPDRFSGSGSGTDFTLKISRVEAEDLGVYYCFQGSHVPFTFGSGTKLEIK
notes: Mouse hybridoma antibody; Used as hybridoma supernatant in the screening and immunoprecipitation assays; also called mAb 5C9; antibody from hybridoma clone 5C9
binds: [1] | [2] | [3]
